Assay [1] has as its target T1, Flag tag-Bcl-xL (UniProt Q07817 1-233).
T1 construct: Expressed in transfected COS cells; also called Flag-Bcl-xL
In words: co-immunoprecipitation from transfected COS cells.

The chains behind the UniProt entries cited, without tags or fusion partners.
UniProt Q07817: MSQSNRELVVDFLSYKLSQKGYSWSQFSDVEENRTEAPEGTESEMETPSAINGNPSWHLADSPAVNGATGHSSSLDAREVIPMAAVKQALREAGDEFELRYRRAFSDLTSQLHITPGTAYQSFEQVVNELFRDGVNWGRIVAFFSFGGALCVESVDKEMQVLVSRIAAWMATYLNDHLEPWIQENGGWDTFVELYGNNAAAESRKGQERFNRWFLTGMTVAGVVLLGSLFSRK

The target of assay [2] is T1, Flag tag-Bcl-xL. The experiment in a line: co-immunoprecipitation from transfected cells.

No constants are given. Whether binding was seen depends on the method and setting. In cells and extracts the contact can be indirect. Some results given as binding are weak or reduced against the parent protein; the word gives no strength.

B1: Bip1a (other, UniProt Q13323 1-160, looked up)
chain: MSEVRPLSRDILMETLLYEQLLEPPTMEVLGMTDSEEDLDPMEDFDSLECMEGSDALALRLACIGDEMDVSLRAPRLAQLSEVAMHSLGLAFIYDQTEDIRDVLRSFMDGFTTLKENIMRFWRSPNPGSWVSCEQVLLALLLLLALLLPLLSGGLHLLLK
notes: Used in vitro translated and 35S labeled, and expressed in transfected COS cells; also called in vitro translated, 35S labeled Bip1a
Turning to B1, the binding result in the assay with Flag tag-Bcl-xL [1] and with Flag tag-Bcl-xL [2] was “binds” each time.

Source of the values: patent US7097982 (IMMUNOGEN, dated 2006).
